The record followed here is paper PMC7303359.

In this data set the target is T1, TraJR1 (Escherichia coli plasmid R1) (UniProt P05837).
T1 sequence (looked up, limits assumed): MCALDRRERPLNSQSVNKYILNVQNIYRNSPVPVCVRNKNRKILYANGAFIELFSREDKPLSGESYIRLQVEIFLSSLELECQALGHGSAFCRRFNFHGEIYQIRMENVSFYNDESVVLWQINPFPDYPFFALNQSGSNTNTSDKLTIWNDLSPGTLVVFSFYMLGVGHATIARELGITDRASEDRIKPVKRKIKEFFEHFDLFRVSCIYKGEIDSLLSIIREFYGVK
Briefly: EMSA. Particulars: 500 nM TraJR1; EMSA: 0.5 nM DNA, 12 mM HEPES pH 7.9, 30 mM Tris-Cl pH 7.5, 60 mM KCl, 10% glycerol, 1.7 mM EDTA, 26 mM boric acid, 5 mM TCEP, 30 C 15 min; recombinant protein; label: 5'-Cy5; probe letters rebuilt from the primers and the genome. In general terms: A gel shift assay detects complexes by their altered migration in electrophoresis.

Construct, isoform or probe ends are uncertain for at least one entry. Whether high values mean tight binding is not given here for every scale.

For “TAACACCTCCCGCTGTTTATCTTCTGGTTACCACTTATGTTTGCAGAATAATCAGAAAAGGTAAATAGACGGAAAGTCTATATTTTATTAACACCTTATTAACGCGTATTTATGATACACATAGCCTTCTCGTATAAATAATAAATAAACTTTTTATTGTAGAGTAAGATAATTAACTCATCTTTATTAGAAACAGAGAAGTAGTCGCATATCAGAGATGCGTGTTTCTTTGATGTGGAGATGGATATATTTAATATTCTTGCTATAGCATTATGACTGATTCCGGTGCTATATAAGTAAAAGACATCATTTACATATGATGATACAGAAGAATCATCACTCATTCTTCTGATTATATTTCTGATATCATCACTGACAATCGTTTTTTGATTATAACTGTCTTTATGACGAACATGAGCAGC (double strand) [FPY]”, the binding signal was 34 % free DNA.
